Experimental data taken from patent US6824972 (BAYLOR COLLEGE OF MEDICINE, dated 2004).
Results are given in words; binding and its absence hold for the method and conditions named. Some results given as binding are weak or reduced against the parent protein; the word gives no strength.

Target: T1, NF-κB p50 subunit (human), P19838
T1 chain: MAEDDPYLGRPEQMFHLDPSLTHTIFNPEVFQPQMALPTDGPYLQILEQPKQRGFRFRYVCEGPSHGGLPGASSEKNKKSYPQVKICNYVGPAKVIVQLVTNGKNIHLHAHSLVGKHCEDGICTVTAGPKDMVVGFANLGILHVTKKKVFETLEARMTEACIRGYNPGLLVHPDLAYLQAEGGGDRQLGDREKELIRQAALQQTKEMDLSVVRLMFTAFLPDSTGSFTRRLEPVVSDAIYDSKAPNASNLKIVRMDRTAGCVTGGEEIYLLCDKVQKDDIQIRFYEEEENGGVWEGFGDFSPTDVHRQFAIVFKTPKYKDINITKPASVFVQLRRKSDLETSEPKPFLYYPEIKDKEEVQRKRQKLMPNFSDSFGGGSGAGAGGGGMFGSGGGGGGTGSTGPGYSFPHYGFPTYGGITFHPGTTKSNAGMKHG
Assay: EMSA with supershift, nuclear extracts of TNF-stimulated normal and patient G embryonic fibroblasts, 32P-labelled MHC-1 probe; called the p50/p50 complex in the same paragraph
Settings: remark: other sources report otherwise

B1: NF-κB p50 subunit (other, human, UniProt P19838 1-433, looked up)
chain: T1 chain
binding: binds
